The text below walks through data of paper PMC11077062.

By UniProt entry, the sequences of proteins in these tests, tags left out.
UniProt P60281: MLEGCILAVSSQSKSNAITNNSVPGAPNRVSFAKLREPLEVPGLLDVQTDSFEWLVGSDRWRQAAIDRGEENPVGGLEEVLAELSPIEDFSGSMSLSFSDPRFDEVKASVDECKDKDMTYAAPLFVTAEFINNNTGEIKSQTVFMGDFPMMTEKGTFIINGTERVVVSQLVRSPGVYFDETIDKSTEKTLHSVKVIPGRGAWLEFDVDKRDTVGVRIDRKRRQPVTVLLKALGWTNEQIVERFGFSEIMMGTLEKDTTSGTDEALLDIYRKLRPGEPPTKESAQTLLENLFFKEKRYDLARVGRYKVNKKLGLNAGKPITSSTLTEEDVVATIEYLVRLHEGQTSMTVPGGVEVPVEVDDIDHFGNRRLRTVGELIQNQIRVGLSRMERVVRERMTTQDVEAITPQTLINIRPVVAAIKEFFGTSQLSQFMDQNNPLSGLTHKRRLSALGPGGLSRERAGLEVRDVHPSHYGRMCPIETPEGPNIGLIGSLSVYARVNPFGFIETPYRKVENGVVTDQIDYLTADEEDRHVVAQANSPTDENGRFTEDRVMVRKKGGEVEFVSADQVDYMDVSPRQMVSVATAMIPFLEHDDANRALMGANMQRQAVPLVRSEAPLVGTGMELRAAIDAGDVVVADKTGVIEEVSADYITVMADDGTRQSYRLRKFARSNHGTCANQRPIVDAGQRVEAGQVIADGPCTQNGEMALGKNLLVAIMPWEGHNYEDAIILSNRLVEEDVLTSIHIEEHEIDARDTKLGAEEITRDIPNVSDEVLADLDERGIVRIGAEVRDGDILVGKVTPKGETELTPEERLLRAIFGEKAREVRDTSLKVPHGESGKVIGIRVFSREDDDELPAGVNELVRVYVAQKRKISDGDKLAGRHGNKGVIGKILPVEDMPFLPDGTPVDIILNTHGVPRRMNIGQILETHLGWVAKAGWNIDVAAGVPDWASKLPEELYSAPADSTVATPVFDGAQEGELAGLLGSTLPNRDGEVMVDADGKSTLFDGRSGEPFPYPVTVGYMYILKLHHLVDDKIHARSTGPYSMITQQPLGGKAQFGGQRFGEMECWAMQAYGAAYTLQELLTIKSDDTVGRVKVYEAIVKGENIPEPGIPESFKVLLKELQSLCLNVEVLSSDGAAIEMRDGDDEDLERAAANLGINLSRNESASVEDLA

Results are given in words; binding and its absence hold for the method and conditions named. In cells and extracts the contact can be indirect. Some results given as binding are weak or reduced against the parent protein; the word gives no strength. Tags and fused reporters may be left off the sequences shown.

The target of test [1] is RNA polymerase β subunit (Mycobacterium smegmatis) (Mycobacterium smegmatis (endogenous in M. smegmatis mc2 155)) (UniProt P60281). The experiment in a line: co-IP.
The target is the same in test [2]. Description: co-IP; M. smegmatis lysates (exponential, stationary; also mitomycin C-treated cells); anti-RNAP β [8RB13] or anti-σ70 [2G10] on Protein G plus agarose, 16-18 h at 4°C, 20 mM Tris-HCl pH 7.9, 150 mM KCl, 1 mM MgCl2; silver-stained SDS-PAGE, MALDI-TOF, western blot. For orientation: In western blotting, separated proteins are transferred to a membrane and probed.

B1: RbpA (Mycobacterium smegmatis) (protein, UniProt A0QZ11 1-114)
chain: MADRVLRGSRLGAVSYETDRNHDLAPRQVARYRTDNGEEFDVPFADDAEIPGTWLCRNGLEGTLIEGDVPEPKKVKPPRTHWDMLLERRSVEELEELLKERLDLIKAKRRGTGS
For B1, the binding result in test [1] is given as “binds”.

B2: HelD (Mycobacterium smegmatis) (protein, UniProt A0QUE0 1-736)
chain: MSGRDYEDELQSERDYVAGLYARLDAERAQSQRRYAAALREHGGTAVERDAEVRALAKDIARLNVADNGLCFGRLDTLDDARLYIGRLGIFDRDNDFEPLLLDWRAPMARPFYVATAANPENMRRRRQFHTLGRKVVDFTDEILGRPTGAEHDATNDAALLAAVNAPRGEGMRDIVATIQAEQDQVIRLDHTGVLVIEGGPGTGKTVVALHRVAYLLYTYRKQMERHGVLVVGPTPAFLDHIGRVLPSLGESDAVFMTPGDFVPGLHVTAEDTPEAAEVKGSLKILDVLKAAVADRQELPSEPIPIDLSDVTMRIDAETAKWARDEARKTGLPHNEARAEFVDVVTYVVTERAVARIGRGWLTRDDKHAWEKMRADVVGELEDHEQFNAALDALWPILTPEDVLAQLYTSHERLRAAGAPECLWRADGEAWTVSDVPLLDELVDLLGRNKAADEAAERERREEEAYAAGVLDLMVDREDLMDDEDHLLAQDLIDAEELADRFKEQDNRELSERAAADREWTYGHVVVDEAQELSEMDWRLLMRRCPRRSFTIVGDLAQRRSPAGARSWGAMLDSYVPGRWVYKSLSVNYRTPAEIMAVAAAVLAEFAPDATPPDSVRACGVAPWARQVTDDDIASAIAEFVSEEAGREGTSVVIGPPDVPGTVPPSETKGLEFDAVLVVEPERILADGPRGAAELYVALTRATQRLGVLYRDALPQALAGLAEGDAAATVEQRTSA
For the molecule B2, in test [2], the binding entry is on record as “binds”.
